Measurements: patent US20030228667A1
These are yes or no findings as the source states them, for the method shown. Some entries that bind do so weakly or less than the wild type.

Chains of the proteins cited; added tags and fusions are not shown. Lines headed by an entry give the natural chain unless they say otherwise; changes in a name come on top.
UniProt O88522: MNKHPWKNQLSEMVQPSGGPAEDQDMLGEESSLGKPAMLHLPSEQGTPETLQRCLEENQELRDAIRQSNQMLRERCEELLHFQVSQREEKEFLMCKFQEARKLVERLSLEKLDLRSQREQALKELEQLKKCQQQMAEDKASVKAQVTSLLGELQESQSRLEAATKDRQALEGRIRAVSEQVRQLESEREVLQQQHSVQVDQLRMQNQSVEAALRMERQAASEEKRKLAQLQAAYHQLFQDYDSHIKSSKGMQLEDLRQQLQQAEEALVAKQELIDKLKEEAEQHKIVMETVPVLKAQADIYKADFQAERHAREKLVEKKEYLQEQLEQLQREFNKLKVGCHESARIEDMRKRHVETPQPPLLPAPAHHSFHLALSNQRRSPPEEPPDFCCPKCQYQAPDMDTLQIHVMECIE

What was measured:
[1] = biological target: NEMO (NF-κB Essential MOdulator), murine, untagged, in vitro translated in wheat germ extract (murine) (UniProt O88522); test: glutaraldehyde crosslinking of in vitro translated NEMO
[2] = biological target: NEMO (NF-κB Essential MOdulator), murine, untagged, in vitro translated in wheat germ extract (murine) (UniProt O88522); test: glutaraldehyde crosslinking of in vitro translated NEMO, immunoprecipitation with NEMO antiserum, SDS-PAGE
[3] = biological target: NEMO (NF-κB Essential MOdulator), murine, untagged, in vitro translated in wheat germ extract (murine) (UniProt O88522); test: glutaraldehyde crosslinking of in vitro translated NEMO (wheat germ extract)

Measured: binding

NEMO (NF-κB Essential MOdulator), murine, untagged, in vitro translated in wheat germ extract (from UniProt O88522 3-411)
binds: all assays above
